Test system: 5637 cells
Experiment: Cellular uptake by flow cytometry (fluorescence)
Format: cell-based, human
Conditions: 5637, 10 µM; for positive cells (cellular uptake): medium with FBS

Compound | positive cells (cellular uptake) (0.5 h) | positive cells (cellular uptake) (2 h) | positive cells (cellular uptake) (4 h) | fluorescence (cellular uptake) in the medium without FBS (8 h, 0% FBS) | positive cells (cellular uptake) (8 h) [%]
(1E,4Z,6E)-5-hydroxy-1,7-bis (3-methoxy-4-hydroxyphenyl)-hepta-1,4,6-trien-3-one [Curcumin (11), reference compound] | approximately 30% | 80–90% | 80–90% | – | –
COCCOCCOCCOc1ccc(/C=C/C(=O)/C=C(O)/C=C/c2ccc(OCCOCCOCCOC)c(OC)c2)cc1OC [Compound 5, (1E,4Z,6E)-5-hydroxy-1,7-bis(3-methoxy-4-{2-[2-(2-methoxyethoxy)ethoxy]ethoxy}phenyl)-hepta-1,4,6-trien-3-one] | – | – | – | diminished | 36
